In the supplement of paper PMC10849652:
The other results are listed elsewhere or left out.

Chains of the proteins cited; added tags and fusions are not shown. Lines headed by an entry give the natural chain unless they say otherwise; changes in a name come on top.
UniProt Q9BW27: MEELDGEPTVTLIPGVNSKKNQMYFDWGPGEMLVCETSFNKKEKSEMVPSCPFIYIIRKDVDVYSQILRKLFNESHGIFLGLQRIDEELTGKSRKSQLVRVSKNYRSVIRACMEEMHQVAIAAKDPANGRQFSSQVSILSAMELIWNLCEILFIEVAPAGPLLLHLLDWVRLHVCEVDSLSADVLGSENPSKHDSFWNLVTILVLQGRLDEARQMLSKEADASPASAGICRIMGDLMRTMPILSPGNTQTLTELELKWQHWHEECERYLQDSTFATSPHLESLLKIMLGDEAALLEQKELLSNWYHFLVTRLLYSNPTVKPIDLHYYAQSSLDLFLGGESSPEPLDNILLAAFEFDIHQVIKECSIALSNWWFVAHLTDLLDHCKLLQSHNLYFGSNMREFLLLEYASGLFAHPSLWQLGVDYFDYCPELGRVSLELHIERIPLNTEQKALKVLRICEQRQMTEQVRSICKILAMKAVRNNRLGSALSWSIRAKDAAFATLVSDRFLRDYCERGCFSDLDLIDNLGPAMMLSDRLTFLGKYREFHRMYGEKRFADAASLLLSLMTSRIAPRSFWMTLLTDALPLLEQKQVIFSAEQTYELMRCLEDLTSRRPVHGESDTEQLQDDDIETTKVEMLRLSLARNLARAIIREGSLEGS
UniProt Q8TE04: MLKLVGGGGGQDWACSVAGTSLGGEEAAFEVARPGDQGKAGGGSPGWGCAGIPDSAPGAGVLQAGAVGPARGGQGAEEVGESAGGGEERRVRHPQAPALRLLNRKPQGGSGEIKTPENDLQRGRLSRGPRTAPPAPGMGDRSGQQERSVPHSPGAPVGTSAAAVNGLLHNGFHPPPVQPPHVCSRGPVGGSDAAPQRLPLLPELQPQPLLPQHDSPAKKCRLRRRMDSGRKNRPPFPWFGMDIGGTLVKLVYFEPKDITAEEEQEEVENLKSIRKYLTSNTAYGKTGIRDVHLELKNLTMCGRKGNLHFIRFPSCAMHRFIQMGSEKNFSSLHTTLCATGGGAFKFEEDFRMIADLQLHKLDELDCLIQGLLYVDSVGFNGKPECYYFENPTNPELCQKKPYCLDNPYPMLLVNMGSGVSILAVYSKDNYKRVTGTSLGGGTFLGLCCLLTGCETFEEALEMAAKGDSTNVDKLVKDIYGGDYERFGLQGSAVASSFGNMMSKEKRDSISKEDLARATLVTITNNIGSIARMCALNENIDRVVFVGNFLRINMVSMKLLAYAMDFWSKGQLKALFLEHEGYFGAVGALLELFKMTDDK
UniProt Q8NFH4: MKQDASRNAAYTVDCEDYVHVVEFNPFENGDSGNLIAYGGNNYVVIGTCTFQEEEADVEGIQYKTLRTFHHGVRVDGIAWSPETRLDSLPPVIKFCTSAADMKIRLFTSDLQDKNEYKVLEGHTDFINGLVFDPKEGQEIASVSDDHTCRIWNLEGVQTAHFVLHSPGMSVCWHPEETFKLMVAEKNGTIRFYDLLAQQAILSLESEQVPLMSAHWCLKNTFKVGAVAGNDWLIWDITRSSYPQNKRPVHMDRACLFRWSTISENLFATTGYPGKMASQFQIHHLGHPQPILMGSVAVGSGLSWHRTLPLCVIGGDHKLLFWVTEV
UniProt Q9H813: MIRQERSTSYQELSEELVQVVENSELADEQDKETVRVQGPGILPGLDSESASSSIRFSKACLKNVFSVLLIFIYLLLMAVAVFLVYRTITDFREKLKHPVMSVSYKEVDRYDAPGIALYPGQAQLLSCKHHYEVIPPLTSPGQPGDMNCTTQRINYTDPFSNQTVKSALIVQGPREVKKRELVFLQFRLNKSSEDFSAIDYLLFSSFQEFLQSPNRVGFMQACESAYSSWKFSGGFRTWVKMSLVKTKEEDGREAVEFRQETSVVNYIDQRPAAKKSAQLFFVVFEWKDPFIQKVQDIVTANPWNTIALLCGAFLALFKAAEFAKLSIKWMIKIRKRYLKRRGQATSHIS
UniProt P07237: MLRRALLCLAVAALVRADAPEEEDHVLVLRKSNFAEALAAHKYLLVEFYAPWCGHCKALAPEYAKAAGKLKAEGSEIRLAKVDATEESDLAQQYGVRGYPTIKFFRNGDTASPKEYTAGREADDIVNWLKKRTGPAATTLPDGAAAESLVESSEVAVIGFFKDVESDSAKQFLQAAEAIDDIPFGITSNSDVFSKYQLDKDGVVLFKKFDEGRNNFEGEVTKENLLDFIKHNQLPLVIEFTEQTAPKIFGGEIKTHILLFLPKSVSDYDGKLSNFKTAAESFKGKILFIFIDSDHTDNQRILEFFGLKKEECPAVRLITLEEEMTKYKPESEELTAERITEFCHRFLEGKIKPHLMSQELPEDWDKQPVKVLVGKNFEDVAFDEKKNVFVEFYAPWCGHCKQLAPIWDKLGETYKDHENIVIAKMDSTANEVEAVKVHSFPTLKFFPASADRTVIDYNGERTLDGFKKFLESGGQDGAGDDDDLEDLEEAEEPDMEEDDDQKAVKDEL
UniProt Q9NWT1: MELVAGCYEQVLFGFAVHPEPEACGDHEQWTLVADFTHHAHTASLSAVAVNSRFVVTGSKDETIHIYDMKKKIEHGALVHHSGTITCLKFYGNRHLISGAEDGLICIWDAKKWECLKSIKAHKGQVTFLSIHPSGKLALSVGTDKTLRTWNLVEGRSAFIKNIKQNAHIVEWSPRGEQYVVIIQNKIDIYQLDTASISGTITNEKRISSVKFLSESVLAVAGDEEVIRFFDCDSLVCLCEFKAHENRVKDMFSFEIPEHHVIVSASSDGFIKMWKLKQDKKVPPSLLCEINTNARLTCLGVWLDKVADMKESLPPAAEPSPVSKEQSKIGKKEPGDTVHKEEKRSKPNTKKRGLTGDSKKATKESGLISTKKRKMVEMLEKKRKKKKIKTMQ
UniProt Q8N1F7: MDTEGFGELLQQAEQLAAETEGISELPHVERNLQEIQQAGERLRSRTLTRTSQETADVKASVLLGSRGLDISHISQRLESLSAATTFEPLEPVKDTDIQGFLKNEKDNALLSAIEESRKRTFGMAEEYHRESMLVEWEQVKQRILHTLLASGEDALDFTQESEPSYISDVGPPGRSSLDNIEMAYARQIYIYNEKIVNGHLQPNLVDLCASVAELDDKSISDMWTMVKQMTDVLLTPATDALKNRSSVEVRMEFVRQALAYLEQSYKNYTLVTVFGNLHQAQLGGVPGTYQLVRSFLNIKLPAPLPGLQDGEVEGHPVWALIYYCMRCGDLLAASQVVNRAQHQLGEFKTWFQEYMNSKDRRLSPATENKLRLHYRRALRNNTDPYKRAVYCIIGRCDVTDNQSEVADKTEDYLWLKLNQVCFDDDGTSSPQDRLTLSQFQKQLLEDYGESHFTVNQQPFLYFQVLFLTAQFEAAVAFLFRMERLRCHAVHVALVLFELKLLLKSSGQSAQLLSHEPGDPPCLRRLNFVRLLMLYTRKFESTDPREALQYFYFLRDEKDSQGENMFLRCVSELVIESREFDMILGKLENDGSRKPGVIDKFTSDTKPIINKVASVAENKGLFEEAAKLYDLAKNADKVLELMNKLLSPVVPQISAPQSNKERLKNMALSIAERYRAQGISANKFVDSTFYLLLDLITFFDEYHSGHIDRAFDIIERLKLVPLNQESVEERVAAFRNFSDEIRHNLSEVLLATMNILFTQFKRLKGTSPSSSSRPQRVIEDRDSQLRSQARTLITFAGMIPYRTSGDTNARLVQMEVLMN
UniProt P37198: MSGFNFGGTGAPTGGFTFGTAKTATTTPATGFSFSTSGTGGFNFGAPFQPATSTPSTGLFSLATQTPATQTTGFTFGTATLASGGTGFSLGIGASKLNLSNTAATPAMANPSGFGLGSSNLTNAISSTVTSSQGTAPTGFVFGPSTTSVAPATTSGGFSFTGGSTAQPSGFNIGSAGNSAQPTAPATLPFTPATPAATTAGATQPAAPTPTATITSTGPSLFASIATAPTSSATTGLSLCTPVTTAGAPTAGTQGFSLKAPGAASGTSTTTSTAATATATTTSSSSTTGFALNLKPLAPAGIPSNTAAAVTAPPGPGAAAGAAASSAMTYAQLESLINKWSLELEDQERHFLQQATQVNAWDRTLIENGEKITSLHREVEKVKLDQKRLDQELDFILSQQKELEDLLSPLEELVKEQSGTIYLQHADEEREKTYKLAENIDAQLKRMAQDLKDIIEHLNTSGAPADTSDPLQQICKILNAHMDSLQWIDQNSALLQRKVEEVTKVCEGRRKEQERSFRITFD
UniProt O60502: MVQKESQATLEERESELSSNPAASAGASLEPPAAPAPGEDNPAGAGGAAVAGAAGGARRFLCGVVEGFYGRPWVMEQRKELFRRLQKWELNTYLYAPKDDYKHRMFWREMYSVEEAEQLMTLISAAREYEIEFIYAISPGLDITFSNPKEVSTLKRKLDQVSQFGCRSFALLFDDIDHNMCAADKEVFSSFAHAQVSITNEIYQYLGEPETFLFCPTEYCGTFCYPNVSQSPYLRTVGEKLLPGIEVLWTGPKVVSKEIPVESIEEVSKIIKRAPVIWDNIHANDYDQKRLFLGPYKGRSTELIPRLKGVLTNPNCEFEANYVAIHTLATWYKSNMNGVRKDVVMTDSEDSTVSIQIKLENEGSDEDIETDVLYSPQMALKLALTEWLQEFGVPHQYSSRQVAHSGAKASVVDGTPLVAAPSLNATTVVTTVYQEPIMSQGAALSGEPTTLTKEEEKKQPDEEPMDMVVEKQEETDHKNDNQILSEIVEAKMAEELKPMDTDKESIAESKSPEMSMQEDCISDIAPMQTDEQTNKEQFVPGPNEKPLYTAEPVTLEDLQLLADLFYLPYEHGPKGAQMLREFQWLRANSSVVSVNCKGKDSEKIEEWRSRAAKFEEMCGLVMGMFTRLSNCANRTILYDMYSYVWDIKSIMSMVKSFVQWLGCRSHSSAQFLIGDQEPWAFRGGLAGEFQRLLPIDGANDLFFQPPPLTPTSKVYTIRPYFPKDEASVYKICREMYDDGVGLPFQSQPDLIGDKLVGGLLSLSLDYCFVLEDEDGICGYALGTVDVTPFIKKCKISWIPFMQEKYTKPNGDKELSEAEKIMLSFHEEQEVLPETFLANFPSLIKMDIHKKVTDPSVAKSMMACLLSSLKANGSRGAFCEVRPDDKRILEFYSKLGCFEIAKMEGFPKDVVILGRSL
UniProt Q9Y530: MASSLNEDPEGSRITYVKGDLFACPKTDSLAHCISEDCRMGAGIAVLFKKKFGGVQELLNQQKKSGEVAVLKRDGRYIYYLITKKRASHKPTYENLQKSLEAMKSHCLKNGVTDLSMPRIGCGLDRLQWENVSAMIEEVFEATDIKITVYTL
UniProt O43913: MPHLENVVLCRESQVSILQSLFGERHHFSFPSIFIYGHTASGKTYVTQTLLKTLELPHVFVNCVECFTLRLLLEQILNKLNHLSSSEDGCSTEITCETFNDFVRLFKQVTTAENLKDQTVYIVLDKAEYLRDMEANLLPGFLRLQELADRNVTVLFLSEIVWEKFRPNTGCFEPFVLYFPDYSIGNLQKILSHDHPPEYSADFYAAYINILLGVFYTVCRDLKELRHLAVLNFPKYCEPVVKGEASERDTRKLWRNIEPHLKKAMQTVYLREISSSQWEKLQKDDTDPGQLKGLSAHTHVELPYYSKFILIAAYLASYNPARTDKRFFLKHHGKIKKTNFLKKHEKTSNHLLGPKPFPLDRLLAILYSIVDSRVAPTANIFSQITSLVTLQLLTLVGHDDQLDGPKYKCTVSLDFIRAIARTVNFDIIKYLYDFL
UniProt Q13416: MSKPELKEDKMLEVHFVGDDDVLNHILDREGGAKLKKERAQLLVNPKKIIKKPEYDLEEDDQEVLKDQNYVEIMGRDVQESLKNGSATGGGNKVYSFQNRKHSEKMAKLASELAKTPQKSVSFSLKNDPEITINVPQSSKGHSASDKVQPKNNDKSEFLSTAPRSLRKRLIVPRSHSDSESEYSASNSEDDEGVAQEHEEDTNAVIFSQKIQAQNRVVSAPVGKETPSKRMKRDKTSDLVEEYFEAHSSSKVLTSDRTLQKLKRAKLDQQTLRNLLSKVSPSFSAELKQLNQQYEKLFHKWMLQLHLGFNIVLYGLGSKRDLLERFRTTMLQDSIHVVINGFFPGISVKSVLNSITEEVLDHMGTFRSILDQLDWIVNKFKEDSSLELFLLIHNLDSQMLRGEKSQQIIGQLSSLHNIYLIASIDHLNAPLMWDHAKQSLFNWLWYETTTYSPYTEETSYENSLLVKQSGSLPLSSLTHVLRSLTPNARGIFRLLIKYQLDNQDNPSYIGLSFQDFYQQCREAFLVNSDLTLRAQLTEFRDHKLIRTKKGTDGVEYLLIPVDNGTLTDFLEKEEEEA
UniProt Q92882: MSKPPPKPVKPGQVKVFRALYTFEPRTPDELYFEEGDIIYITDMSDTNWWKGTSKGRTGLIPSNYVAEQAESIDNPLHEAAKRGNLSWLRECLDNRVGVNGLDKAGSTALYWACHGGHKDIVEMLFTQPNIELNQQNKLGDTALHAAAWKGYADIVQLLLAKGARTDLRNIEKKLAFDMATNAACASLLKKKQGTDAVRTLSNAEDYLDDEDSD

Tests used:
Test in all cases: log2 fold change, soluble protein after heating vs DMSO (PISA); higher = thermal stabilisation; K562 lysate, 10 uM; active = over 0.2 and 3.5 SD of the protein, either way, in both replicates (recomputed)
[1] = compound: C=CC(=O)N1CCC[C@@H](n2nc(-c3ccc(Oc4ccccc4)cc3)c3c(N)ncnc32)C1 [ibrutinib]
Procedure, shortened: (§1)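 To prepare the extract, K562 pellets were dounce-homogenised in PBS pH 7.4 with 1 mM MgCl2, giving crude material at 1 mg/mL protein. This was treated with 10 μM compound for 30 min, then heated in aliquots for 3 min over 48°C-58°C before pooling and addition of NP-40 to 0.5% at 4°C. Centrifugation at 21,000xg for 90 min left soluble protein in the supernatant, which TMTpro 16plex LC-MS/MS quantified with equalised channel sums. Results are log-two fold changes in thermal stability compared with solvent controls, from duplicates.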

[2] = compound: CC(=O)c1cnc2ccc(-c3cc(Cl)c(O)c(Cl)c3)nc2c1N[C@H]1CC[C@H](CN(C)C)CC1
Procedure, shortened: as §1

[3] = compound: CC(C)(C)Cn1c(N)nc2ccc(-c3[nH]c(C(C)(C)C)nc3-c3ccc(F)cc3)nc21 [ralimetinib]
Procedure, shortened: as §1

[4] = compound: CC(C)(O)CC(=O)NCCn1ccc2ncnc(Nc3ccc(Oc4cccc(C(F)(F)F)c4)c(Cl)c3)c21
Procedure, shortened: as §1

[5] = compound: CC(C)C1=C2N=C(C=C(N2N=C1)NCC3=CC=CC=C3)NCCCCCCN
Procedure, shortened: as §1

[6] = compound: CC1=C(C(CC(=O)N1)C2=CC=C(C=C2)C(F)(F)F)C(=O)NC3=C(C=C4C(=C3)C=NN4)F
Procedure, shortened: as §1

[7] = compound: CC1=C(C2=C(C=C1)C(=O)C3=CC=CC=C3N2CCCN)C
Procedure, shortened: as §1

[8] = compound: CC1=C(C=C(C=C1)NC(=O)C2=CC(=CC=C2)C(C)(C)C#N)NC3=CC4=C(C=C3)N=CN(C4=O)C
Procedure, shortened: as §1

[9] = compound: CC1=C(C=C(C=C1)NC(=O)C2=CC(=CC=C2)N(C)C)NC(=O)C3=CC=C(C=C3)O
Procedure, shortened: as §1

[10] = compound: CC1=CC=C(C=C1)SC2=C3C=C(SC3=CN=C2)C(=O)N
Procedure, shortened: as §1

[11] = compound: CCCS(=O)(=O)Nc1ccc(F)c(C(=O)c2c[nH]c3ncc(-c4ccc(Cl)cc4)cc23)c1F [vemurafenib]
Procedure, shortened: as §1

[12] = compound: CCCS(=O)(=O)Nc1ccc(F)c(C(=O)c2c[nH]c3ncc(Cl)cc23)c1F
Procedure, shortened: as §1

[13] = compound: CCN(CCCOc1ccc2c(Nc3cc(CC(=O)Nc4cccc(F)c4)[nH]n3)ncnc2c1)CCOP(=O)(O)O [barasertib]
Procedure, shortened: as §1

[14] = compound: CC[C@@H]1C(=O)N(C)c2cnc(Nc3ccc(C(=O)NC4CCN(C)CC4)cc3OC)nc2N1C1CCCC1
Procedure, shortened: as §1

[15] = compound: CC[C@@H]1C(=O)N(C)c2cnc(Nc3ccc(C(=O)N[C@H]4CC[C@H](N5CCN(CC6CC6)CC5)CC4)cc3OC)nc2N1C(C)C [volasertib]
Procedure, shortened: as §1

[16] = compound: CCn1c(C(=O)N(C2CC2)C2CC2)cc2c3c(ncn3C)c(Nc3cc(C)n(C)n3)nc21
Procedure, shortened: as §1

[17] = compound: CCn1cc(-c2ccnc3[nH]c(-c4cccc(CN(C)C)c4)cc23)c(-c2ccc(NC(=O)N(C)C)cc2)n1
Procedure, shortened: as §1

[18] = compound: CN1CCC(CNc2ccc3ncc(-c4cccc(OC(F)(F)F)c4)n3n2)CC1
Procedure, shortened: as §1

[19] = compound: CN1CCN(CCOc2cc(OC3CCOCC3)c3c(Nc4c(Cl)ccc5c4OCO5)ncnc3c2)CC1 [saracatinib]
Procedure, shortened: as §1

[20] = compound: CN1CCN(c2nc(C3=C(c4c[nH]c5ccccc45)C(=O)NC3=O)c3ccccc3n2)CC1 [sotrastaurin]
Procedure, shortened: as §1

Measured: log2 fold change

NUP85 (UniProt Q9BW27)
inactive: [1] 0.016 | [2] -0.017 | [3] 0.02 | [4] -0.009 | [5] 0.007 | [6] 0.013 | [7] -0.004 | [8] -0.022 | [9] -0.005 | [10] -0.005 | [11] 0.002 | [12] 0.021 | [13] 0.002 | [14] -0.111 | [15] -0.209 | [16] -0.001 | [17] -0.09 | [18] 0.082 | [19] 0.025 | [20] -0.026

PANK1 (UniProt Q8TE04)
inactive: [1] -0.031 | [2] -0.007 | [3] 0.04 | [4] -0.003 | [5] -0.079 | [6] 0.045 | [7] -0.068 | [8] -0.035 | [9] -0.025 | [10] 0.064 | [11] 0.086 | [12] 0.036 | [13] 0.097 | [14] -0.231 | [15] -0.063 | [16] 0.056 | [17] 0.226 | [18] -0.253 | [19] 0 | [20] 0.052

NUP37 (UniProt Q8NFH4)
inactive: [1] -0.052 | [2] -0.008 | [3] 0.005 | [4] 0.013 | [5] -0.002 | [6] 0.016 | [7] 0.009 | [8] -0.007 | [9] -0.01 | [10] 0 | [11] 0.019 | [12] 0.002 | [13] -0.001 | [14] -0.095 | [15] -0.029 | [16] 0.029 | [17] -0.116 | [18] 0.011 | [19] -0.015 | [20] 0.006

PACC1 (UniProt Q9H813)
inactive: [1] 0.145 | [2] 0.068 | [3] -0.081 | [4] -0.081 | [5] -0.163 | [6] -0.058 | [7] -0.038 | [8] -0.118 | [9] -0.044 | [10] -0.086 | [11] -0.034 | [12] 0.046 | [13] 0.009 | [14] 0.108 | [15] -0.035 | [16] -0.05 | [17] -0.006 | [18] 0.04 | [19] 0.152 | [20] 0.061

P4HB (UniProt P07237)
inactive: [1] -0.015 | [2] 0.007 | [3] -0.009 | [4] 0.034 | [5] 0.006 | [6] -0.023 | [7] 0.017 | [8] -0.027 | [9] -0.012 | [10] 0.004 | [11] -0.009 | [12] -0.014 | [13] -0.033 | [14] 0.029 | [15] 0.028 | [16] 0.015 | [17] 0.056 | [18] -0.018 | [19] -0.021 | [20] 0.035

PAK1IP1 (UniProt Q9NWT1)
inactive: [1] 0.008 | [2] -0.01 | [3] 0.005 | [4] -0.009 | [5] -0.003 | [6] 0 | [7] -0.009 | [8] -0.023 | [9] -0.008 | [10] -0.006 | [11] -0.016 | [12] 0.014 | [13] 0.033 | [14] -0.037 | [15] 0.016 | [16] -0.004 | [17] -0.018 | [18] 0.022 | [19] 0.025 | [20] 0.036

PAFAH2 (UniProt Q99487)
inactive: [1] -0.039 | [2] 0.158 | [3] -0.038 | [4] 0.032 | [5] -0.022 | [6] 0.065 | [7] -0.062 | [8] 0.018 | [9] 0.019 | [10] -0.016 | [11] 0.078 | [12] -0.073 | [13] 0.148 | [14] 0.052 | [15] 0.022 | [16] -0.039 | [17] 0.043 | [18] 0.083 | [19] 0.018 | [20] -0.099

NUP93 (UniProt Q8N1F7)
inactive: [1] -0.013 | [2] 0.007 | [3] 0.036 | [4] -0.015 | [5] 0 | [6] 0.027 | [7] 0.019 | [8] -0.029 | [9] 0.036 | [10] 0 | [11] -0.001 | [12] 0.014 | [13] 0.036 | [14] -0.069 | [15] -0.094 | [16] 0.044 | [17] -0.048 | [18] -0.079 | [19] 0.013 | [20] 0.028

NUP62 (UniProt P37198)
inactive: [1] 0.073 | [2] 0.033 | [3] -0.013 | [4] -0.023 | [5] -0.017 | [6] 0.016 | [7] 0.04 | [8] -0.07 | [9] 0.014 | [10] -0.027 | [11] -0.022 | [12] 0.012 | [13] 0.1 | [14] 0.028 | [15] -0.007 | [16] 0.024 | [17] -0.045 | [18] 0.03 | [19] 0.03 | [20] -0.013

OGA (UniProt O60502)
inactive: [1] -0.006 | [2] 0.001 | [3] 0.022 | [4] -0.028 | [5] -0.025 | [6] 0.005 | [7] -0.015 | [8] 0.002 | [9] 0.008 | [10] -0.008 | [11] 0 | [12] 0.009 | [13] 0.02 | [14] -0.016 | [15] -0.004 | [16] 0.001 | [17] 0.043 | [18] -0.037 | [19] -0.006 | [20] -0.001

OARD1 (UniProt Q9Y530)
inactive: [1] -0.013 | [2] 0.003 | [3] 0.003 | [4] 0.002 | [5] -0.01 | [6] -0.027 | [7] -0.046 | [8] 0.032 | [9] 0.035 | [10] 0.011 | [11] -0.011 | [12] 0.004 | [13] -0.01 | [14] -0.01 | [15] -0.031 | [16] 0.022 | [17] -0.056 | [18] -0.034 | [19] 0.006 | [20] 0.002

OBSL1 (UniProt O75147)
inactive: [1] 0.037 | [2] 0.015 | [3] 0 | [4] -0.044 | [5] 0.049 | [6] 0.061 | [7] -0.014 | [8] -0.014 | [9] 0.003 | [10] -0.135 | [11] 0.021 | [12] -0.033 | [13] 0.065 | [14] -0.013 | [15] 0.094 | [16] -0.008 | [17] -0.017 | [18] 0.016 | [19] -0.02 | [20] -0.019

Looked up one by one from above (two):
OGA (UniProt O60502)
inactive: [1] -0.006 | [2] 0.001 | [3] 0.022 | [4] -0.028 | [5] -0.025 | [6] 0.005 | [7] -0.015 | [8] 0.002 | [9] 0.008 | [10] -0.008 | [11] 0 | [12] 0.009 | [13] 0.02 | [14] -0.016 | [15] -0.004 | [16] 0.001 | [17] 0.043 | [18] -0.037 | [19] -0.006 | [20] -0.001

NUP93 (UniProt Q8N1F7)
inactive: [1] -0.013 | [2] 0.007 | [3] 0.036 | [4] -0.015 | [5] 0 | [6] 0.027 | [7] 0.019 | [8] -0.029 | [9] 0.036 | [10] 0 | [11] -0.001 | [12] 0.014 | [13] 0.036 | [14] -0.069 | [15] -0.094 | [16] 0.044 | [17] -0.048 | [18] -0.079 | [19] 0.013 | [20] 0.028

Later entries

PANK4 (UniProt Q9NVE7)
inactive: [1] 0.039 | [2] 0.001 | [3] 0.023 | [4] -0.008 | [5] 0.036 | [6] -0.01 | [7] -0.024 | [8] -0.001 | [9] -0.005 | [10] -0.005 | [11] 0.026 | [12] 0.011 | [13] 0.054 | [14] -0.051 | [15] -0.091 | [16] 0.003 | [17] -0.136 | [18] 0.077 | [19] 0.001 | [20] 0.012

ORC5 (UniProt O43913)
inactive: [1] 0.05 | [2] 0 | [3] 0.047 | [4] -0.001 | [5] 0.022 | [6] -0.027 | [7] -0.008 | [8] 0.012 | [9] 0.053 | [10] -0.007 | [11] -0.059 | [12] -0.001 | [13] -0.052 | [14] -0.156 | [15] -0.023 | [16] 0.013 | [17] -0.038 | [18] 0.01 | [19] -0.001 | [20] 0.024

ORC2 (UniProt Q13416)
inactive: [1] 0.012 | [2] -0.011 | [3] 0.044 | [4] 0.032 | [5] -0.014 | [6] 0.016 | [7] -0.089 | [8] -0.005 | [9] -0.014 | [10] 0.021 | [11] 0.048 | [12] 0.007 | [13] 0.003 | [14] -0.077 | [15] -0.048 | [16] 0.002 | [17] -0.002 | [18] -0.085 | [19] 0.007 | [20] 0.049

OSTF1 (UniProt Q92882)
inactive: [1] -0.001 | [2] 0.023 | [3] -0.007 | [4] -0.024 | [5] -0.006 | [6] -0.019 | [7] -0.014 | [8] 0.046 | [9] -0.001 | [10] 0 | [11] -0.003 | [12] -0.008 | [13] 0.027 | [14] -0.032 | [15] -0.03 | [16] 0 | [17] -0.029 | [18] 0.005 | [19] 0.028 | [20] -0.036
